Measured values as given in patent publication US20120095193A1.
These are yes or no findings as the source states them, for the method shown. Some results given as binding are weak or reduced against the parent protein; the word gives no strength.

The chains behind the UniProt entries cited, without tags or fusion partners. Where a name states a change or a piece, a line headed by the entry shows the natural chain unless it says otherwise.
UniProt Q9UNA0: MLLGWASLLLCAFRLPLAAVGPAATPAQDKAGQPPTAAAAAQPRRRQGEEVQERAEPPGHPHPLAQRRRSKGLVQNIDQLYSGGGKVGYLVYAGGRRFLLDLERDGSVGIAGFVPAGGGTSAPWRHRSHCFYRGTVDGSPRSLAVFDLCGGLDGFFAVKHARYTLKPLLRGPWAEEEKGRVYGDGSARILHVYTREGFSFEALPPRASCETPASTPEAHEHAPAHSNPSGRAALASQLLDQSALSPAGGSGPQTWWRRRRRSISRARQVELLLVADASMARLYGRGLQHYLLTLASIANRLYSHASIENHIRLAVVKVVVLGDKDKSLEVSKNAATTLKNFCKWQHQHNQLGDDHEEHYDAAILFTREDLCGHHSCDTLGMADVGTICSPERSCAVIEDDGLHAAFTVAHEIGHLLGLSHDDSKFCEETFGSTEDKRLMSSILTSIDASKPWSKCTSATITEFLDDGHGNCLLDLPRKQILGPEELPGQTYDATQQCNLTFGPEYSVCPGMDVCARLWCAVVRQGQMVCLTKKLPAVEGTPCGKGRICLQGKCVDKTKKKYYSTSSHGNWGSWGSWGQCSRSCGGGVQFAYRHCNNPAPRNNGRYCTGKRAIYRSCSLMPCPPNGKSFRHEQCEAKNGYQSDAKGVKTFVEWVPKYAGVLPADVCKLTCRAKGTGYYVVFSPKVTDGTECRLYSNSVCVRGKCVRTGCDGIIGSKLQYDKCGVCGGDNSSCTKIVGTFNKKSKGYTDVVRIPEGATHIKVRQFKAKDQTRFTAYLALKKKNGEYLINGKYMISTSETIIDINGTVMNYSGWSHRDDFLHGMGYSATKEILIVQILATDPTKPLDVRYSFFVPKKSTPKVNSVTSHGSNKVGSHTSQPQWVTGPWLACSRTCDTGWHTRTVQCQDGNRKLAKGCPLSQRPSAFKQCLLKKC

What was measured:
[1] = molecular target: human ADAMTS5 (human) (UniProt Q9UNA0); experiment: ELISA on coated recombinant human ADAMTS5 (0.2 ug/ml), purified antibody, anti human kappa peroxidase, OD 490 nm
[2] = molecular target: human ADAMTS5 (human) (UniProt Q9UNA0); experiment: ELISA on coated recombinant human ADAMTS5 (0.2 ug/ml), antibody in culture supernatant, anti human kappa peroxidase, OD 490 nm

B1: BPC1623 (antibody, human IgG1, kappa, V domains shown)
VH: EVKLEESGGGLVQPGGSMKLSCTASGFTFSDAWMDWVRQSPEKGLEWVAEIRHKANDHAIFYDESVKGRFTISRDDSKNIVYLQMNSLRPEDTGIYYCTSPFAYWGQGTLVTVSS
VL: DIVMTQSQKFMSVTVGDRVSITCKASQSVGTTIVWYQQKPGQSPKLLIYSASNRHTGVPDRFTGSGSGTDFILTINNVQSEDLADYFCQQYTSYPFTFGSGTKLEIKR
In the case of B1, the binding [1] is reported as “binds” and the binding [2] is reported as “binds”.
